Measurements as given in the supplement of paper PMC10849652.
Some of the results follow.

By UniProt entry, the sequences of proteins in these tests, tags left out. Where a name states a change or a piece, a line headed by the entry shows the natural chain unless it says otherwise.
UniProt Q96NT0: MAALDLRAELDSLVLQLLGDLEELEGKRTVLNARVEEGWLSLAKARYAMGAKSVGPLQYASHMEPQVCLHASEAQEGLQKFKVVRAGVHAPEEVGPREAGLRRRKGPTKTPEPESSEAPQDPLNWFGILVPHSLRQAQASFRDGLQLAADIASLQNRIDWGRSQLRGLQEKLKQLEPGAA
UniProt P50991: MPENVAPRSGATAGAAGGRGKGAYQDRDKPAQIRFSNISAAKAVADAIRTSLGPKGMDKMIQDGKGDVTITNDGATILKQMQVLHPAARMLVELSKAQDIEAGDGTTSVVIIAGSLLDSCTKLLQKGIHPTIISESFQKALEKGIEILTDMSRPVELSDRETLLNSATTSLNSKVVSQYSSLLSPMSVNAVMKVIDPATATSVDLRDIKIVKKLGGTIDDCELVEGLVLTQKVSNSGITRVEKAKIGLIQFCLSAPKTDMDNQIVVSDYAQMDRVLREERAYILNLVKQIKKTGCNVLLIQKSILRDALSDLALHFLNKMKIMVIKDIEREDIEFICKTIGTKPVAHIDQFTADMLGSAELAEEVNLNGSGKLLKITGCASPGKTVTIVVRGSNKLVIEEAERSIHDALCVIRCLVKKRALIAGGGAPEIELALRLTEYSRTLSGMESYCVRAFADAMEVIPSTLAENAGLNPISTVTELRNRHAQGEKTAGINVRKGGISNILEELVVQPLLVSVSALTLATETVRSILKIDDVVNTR
UniProt A6NKD9: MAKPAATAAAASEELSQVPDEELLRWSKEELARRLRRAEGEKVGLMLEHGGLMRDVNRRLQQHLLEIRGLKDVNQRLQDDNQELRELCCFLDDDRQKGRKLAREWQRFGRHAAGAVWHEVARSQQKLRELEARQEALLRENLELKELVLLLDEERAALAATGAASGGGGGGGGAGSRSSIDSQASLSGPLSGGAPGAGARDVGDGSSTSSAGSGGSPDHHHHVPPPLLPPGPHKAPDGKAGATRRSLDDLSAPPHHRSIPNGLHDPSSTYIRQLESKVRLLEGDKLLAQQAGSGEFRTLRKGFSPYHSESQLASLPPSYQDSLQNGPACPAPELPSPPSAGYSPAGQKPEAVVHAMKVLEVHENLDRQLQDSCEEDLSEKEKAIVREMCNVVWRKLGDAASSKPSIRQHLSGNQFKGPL
UniProt Q96CT7: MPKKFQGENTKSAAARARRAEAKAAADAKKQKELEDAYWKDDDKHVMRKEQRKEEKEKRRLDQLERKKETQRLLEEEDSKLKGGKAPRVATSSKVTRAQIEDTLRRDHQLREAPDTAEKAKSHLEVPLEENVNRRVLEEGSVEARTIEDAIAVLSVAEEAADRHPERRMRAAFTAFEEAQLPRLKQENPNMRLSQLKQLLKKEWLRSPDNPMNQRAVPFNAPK
UniProt P45973, whole entry, looked up: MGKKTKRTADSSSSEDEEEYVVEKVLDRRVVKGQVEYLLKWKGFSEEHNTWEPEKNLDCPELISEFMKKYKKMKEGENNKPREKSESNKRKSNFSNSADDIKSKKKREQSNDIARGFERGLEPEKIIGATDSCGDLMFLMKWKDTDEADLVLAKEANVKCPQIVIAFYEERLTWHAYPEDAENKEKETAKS
UniProt P04040: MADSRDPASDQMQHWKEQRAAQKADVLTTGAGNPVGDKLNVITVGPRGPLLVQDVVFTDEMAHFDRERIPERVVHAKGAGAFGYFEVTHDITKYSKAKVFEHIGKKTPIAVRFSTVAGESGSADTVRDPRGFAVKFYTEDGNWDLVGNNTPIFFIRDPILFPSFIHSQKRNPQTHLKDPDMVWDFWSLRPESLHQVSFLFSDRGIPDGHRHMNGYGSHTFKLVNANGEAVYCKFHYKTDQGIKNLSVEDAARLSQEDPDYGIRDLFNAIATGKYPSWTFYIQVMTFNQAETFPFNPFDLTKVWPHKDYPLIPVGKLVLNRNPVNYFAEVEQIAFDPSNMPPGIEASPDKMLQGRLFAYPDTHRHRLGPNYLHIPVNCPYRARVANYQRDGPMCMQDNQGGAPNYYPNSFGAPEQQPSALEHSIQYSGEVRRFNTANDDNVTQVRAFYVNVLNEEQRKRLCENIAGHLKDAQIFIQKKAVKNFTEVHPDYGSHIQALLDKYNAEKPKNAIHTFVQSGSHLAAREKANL
UniProt O14936: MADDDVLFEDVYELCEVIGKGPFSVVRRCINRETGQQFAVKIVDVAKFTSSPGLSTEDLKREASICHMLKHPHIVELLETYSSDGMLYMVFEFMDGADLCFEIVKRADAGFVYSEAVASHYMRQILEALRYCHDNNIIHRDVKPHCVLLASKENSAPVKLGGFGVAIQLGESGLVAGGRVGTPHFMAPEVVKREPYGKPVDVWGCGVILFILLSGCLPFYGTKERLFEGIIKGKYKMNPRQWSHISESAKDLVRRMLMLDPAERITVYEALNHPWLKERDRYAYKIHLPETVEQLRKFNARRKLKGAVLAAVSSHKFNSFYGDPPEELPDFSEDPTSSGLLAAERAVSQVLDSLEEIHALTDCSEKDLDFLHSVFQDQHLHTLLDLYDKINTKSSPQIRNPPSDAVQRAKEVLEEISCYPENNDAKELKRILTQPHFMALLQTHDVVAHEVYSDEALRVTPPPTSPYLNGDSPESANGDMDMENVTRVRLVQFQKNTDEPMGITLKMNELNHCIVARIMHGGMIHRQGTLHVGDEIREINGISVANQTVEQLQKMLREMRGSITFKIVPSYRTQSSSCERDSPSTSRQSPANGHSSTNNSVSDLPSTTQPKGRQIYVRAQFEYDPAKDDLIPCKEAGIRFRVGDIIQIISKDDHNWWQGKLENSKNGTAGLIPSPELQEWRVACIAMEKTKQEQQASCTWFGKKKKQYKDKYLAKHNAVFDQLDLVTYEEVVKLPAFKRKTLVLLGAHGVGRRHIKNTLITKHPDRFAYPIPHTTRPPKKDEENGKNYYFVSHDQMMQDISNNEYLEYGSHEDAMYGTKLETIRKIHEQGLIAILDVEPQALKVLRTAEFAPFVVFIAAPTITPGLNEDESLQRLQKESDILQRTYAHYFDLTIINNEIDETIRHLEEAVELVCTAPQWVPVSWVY
UniProt O15234, whole entry, looked up: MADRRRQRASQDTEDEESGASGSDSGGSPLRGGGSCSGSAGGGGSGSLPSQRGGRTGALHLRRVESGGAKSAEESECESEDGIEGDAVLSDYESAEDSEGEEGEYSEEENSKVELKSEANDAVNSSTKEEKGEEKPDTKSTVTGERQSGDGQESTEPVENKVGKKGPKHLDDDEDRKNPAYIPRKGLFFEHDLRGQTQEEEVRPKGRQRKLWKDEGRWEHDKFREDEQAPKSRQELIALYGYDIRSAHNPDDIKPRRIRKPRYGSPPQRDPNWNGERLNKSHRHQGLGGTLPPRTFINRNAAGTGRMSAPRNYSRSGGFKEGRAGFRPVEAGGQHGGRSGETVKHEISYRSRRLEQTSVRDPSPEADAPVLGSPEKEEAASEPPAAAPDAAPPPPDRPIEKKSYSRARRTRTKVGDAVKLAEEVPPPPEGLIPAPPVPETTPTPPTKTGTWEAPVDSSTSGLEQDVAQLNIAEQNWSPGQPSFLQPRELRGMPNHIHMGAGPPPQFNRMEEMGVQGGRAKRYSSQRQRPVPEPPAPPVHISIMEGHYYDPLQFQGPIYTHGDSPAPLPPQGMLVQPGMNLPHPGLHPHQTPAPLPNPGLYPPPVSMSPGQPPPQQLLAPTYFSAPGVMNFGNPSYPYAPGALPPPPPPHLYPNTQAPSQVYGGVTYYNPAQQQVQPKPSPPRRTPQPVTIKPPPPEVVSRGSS
UniProt Q2TAC2: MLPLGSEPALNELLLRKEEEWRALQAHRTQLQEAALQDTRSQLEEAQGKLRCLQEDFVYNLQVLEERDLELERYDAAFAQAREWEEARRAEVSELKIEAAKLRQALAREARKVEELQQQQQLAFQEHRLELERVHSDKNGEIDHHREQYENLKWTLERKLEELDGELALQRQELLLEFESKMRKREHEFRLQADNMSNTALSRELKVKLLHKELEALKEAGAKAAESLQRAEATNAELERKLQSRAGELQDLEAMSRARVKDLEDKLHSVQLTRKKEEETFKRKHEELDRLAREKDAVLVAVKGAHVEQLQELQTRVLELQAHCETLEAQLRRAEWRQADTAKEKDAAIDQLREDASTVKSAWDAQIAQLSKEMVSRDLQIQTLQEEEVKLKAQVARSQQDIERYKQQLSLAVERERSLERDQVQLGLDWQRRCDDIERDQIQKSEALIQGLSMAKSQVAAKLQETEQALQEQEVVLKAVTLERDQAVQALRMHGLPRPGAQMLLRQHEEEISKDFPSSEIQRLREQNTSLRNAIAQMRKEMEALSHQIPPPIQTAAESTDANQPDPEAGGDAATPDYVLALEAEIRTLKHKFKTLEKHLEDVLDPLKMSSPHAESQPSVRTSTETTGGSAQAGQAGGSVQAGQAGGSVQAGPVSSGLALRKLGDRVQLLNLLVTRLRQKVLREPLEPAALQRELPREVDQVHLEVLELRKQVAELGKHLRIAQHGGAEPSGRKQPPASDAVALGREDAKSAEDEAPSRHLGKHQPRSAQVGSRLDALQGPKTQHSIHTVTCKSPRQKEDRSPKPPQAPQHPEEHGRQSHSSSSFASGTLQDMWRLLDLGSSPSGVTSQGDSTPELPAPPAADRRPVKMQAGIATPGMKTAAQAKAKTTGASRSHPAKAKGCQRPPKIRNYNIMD
UniProt Q13185: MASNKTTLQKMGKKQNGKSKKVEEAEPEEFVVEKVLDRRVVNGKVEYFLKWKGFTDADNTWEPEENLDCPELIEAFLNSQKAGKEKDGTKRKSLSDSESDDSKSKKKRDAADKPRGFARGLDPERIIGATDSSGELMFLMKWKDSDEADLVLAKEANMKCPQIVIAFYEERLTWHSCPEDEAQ
UniProt P42574: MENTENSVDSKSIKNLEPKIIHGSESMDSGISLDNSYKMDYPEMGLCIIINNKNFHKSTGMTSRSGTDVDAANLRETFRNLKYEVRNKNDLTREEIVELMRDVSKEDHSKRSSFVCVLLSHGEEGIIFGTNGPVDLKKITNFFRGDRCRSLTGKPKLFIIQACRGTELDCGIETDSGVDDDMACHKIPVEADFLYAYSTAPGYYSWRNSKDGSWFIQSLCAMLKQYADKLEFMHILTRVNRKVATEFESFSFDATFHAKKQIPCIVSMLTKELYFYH
UniProt Q8N4T8: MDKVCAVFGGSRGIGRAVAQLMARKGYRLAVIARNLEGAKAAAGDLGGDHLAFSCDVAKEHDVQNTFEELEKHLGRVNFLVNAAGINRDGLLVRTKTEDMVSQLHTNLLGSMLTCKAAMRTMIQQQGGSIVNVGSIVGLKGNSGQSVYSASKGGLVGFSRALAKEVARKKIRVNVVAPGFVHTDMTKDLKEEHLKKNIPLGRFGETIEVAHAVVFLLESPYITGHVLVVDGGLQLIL
UniProt Q9BUN5: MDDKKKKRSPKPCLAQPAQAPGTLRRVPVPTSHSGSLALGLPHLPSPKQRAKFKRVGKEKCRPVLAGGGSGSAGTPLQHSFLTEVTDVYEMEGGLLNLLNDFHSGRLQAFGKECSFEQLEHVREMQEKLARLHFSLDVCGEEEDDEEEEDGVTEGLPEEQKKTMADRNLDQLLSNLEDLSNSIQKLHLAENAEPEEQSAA
UniProt P50990: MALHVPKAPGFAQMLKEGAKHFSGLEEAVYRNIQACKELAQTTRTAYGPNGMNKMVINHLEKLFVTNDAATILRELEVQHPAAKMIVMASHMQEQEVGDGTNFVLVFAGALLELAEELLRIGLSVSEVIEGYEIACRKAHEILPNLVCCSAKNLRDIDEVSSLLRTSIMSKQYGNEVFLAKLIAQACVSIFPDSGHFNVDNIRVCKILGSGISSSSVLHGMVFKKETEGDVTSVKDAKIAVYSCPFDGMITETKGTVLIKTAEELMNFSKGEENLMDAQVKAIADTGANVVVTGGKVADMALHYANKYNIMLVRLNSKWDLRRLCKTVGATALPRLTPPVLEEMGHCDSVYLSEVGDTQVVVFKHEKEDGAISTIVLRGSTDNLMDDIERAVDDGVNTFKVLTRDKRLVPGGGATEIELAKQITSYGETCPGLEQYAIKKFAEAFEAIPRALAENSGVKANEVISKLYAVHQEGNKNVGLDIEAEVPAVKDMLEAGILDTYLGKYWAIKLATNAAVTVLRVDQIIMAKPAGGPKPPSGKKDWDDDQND
UniProt P60033: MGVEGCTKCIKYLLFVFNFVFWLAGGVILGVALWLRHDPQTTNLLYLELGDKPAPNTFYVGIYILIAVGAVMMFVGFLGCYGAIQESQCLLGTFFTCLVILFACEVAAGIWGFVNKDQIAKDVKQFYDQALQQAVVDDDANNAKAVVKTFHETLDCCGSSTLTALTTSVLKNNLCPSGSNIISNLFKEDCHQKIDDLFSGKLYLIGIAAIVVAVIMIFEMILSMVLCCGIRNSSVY
UniProt P24863: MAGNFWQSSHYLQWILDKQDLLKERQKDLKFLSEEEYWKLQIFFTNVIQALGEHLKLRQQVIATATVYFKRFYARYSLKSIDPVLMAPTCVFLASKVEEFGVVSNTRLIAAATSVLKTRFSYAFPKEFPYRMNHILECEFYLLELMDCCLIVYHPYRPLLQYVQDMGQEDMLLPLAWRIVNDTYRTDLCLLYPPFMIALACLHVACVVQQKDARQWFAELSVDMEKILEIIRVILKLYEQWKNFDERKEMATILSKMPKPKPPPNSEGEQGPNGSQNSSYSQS

Each target was assayed with Cc1sc2c(c1C)C(c1ccc(Cl)cc1)=N[C@@H](CC(=O)OC(C)(C)C)c1nnc(C)n1-2 (assay: log2 fold change, soluble protein after heating vs DMSO (PISA); higher = thermal stabilisation; K562 lysate, 10 uM; active = over 0.2 and 3.5 SD of the protein, either way, in both replicates (recomputed)).
Outline: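 Values give the log-two fold change in thermal stability against solvent controls, from duplicates. Crude K562 extract at 1 mg/mL protein, made by dounce homogenisation in PBS pH 7.4 with 1 mM MgCl2, was treated with 10 μM compound for 30 min. After 3 min heating across 48°C-58°C, aliquots were pooled, adjusted to 0.5% NP-40 at 4°C and centrifuged at 21,000xg for 90 min. The supernatant was measured by TMTpro 16plex LC-MS/MS with channel sums equalised.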
For CCDC115 (UniProt Q96NT0), the log2 fold change was inactive: 0.047. CCT4 (UniProt P50991) was tested, and the log2 fold change was inactive: 0.057. With CCDC85C (UniProt A6NKD9) the log2 fold change was inactive: 0.001. With CCDC85B (UniProt Q15834) the log2 fold change was inactive: -0.04. With CCDC124 (UniProt Q96CT7) the log2 fold change was inactive: -0.007. In the case of CD47 (UniProt Q08722), the log2 fold change was inactive: -0.007. CBX5 (UniProt P45973) was tested, and the log2 fold change was inactive: 0.031. With CAT (UniProt P04040) the log2 fold change was inactive: -0.019. For CASK (UniProt O14936), the log2 fold change was inactive: -0.105. In the case of CASC3 (UniProt O15234), the log2 fold change was inactive: 0.032. With CBX1 (UniProt P83916) the log2 fold change was inactive: 0.009. With CCDC57 (UniProt Q2TAC2) the log2 fold change was inactive: 0.012. In the case of CBX3 (UniProt Q13185), the log2 fold change was inactive: -0.052. For CASP3 (UniProt P42574), the log2 fold change was inactive: 0.051. In the case of CBR4 (UniProt Q8N4T8), the log2 fold change was inactive: 0.047. CAVIN2 (UniProt O95810) was tested, and the log2 fold change was inactive: -0.027. CD2AP (UniProt Q9Y5K6) was tested, and the log2 fold change was inactive: -0.018. With CCDC28B (UniProt Q9BUN5) the log2 fold change was inactive: -0.104. With CCT8 (UniProt P50990) the log2 fold change was inactive: 0.009. CD81 (UniProt P60033) was tested, and the log2 fold change was inactive: -0.233. In the case of CCDC186 (UniProt Q7Z3E2), the log2 fold change was inactive: -0.016. In the case of CCNC (UniProt P24863), the log2 fold change was inactive: -0.036. With CD320 (UniProt Q9NPF0) the log2 fold change was inactive: 0.017. For CC2D1A (UniProt Q6P1N0), the log2 fold change was inactive: -0.005.
